In publication doi:10.1101/2021.03.26.436939:
Results are given in words; binding and its absence hold for the method and conditions named. In cells and extracts the contact can be indirect. Some entries that bind do so weakly or less than the wild type. Sequences can lack the tags named with a protein.

Biological target: T1, ^AID-FB(KI)PSPC1 (endogenous PSPC1 with knocked-in 3xFLAG-biotin-AID tag) (mouse (endogenous in mouse ESCs)) (UniProt Q8R326)
T1 sequence (chain, biotin on the biotin tag (cells expressing BirA)): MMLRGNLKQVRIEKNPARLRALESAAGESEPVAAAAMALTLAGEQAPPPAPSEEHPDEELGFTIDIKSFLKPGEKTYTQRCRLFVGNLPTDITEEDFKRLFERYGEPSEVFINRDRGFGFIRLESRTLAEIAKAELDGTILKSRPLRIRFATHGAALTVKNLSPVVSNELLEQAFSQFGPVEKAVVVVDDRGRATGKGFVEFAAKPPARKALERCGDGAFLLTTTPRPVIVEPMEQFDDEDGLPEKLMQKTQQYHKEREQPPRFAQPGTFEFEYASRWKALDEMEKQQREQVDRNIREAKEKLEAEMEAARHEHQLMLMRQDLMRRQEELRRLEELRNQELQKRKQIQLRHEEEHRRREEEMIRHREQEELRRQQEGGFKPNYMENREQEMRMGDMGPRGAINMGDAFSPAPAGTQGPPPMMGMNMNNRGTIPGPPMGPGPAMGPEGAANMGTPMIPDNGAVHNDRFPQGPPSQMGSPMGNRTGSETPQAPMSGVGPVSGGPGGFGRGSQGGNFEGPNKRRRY
Assay: co-IP

B1: TATA-box binding protein (TBP), endogenous (protein, UniProt P29037 1-316)
chain: MDQNNSLPPYAQGLASPQGAMTPGIPIFSPMMPYGTGLTPQPIQNTNSLSILEEQQRQQQQQQQQQQQQQAVATAAASVQQSTSQQPTQGASGQTPQLFHSQTLTTAPLPGTTPLYPSPMTPMTPITPATPASESSGIVPQLQNIVSTVNLGCKLDLKTIALRARNAEYNPKRFAAVIMRIREPRTTALIFSSGKMVCTGAKSEEQSRLAARKYARVVQKLGFPAKFLDFKIQNMVGSCDVKFPIRLEGLVLTHQQFSSYEPELFPGLIYRMIKPRIVLLIFVSGKVVLTGAKVRAEIYEAFENIYPILKGFRKTT
  binding: binds
